# Assay results

The results are deposited in PubChem (AID1159506; NCATS, 2015).

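Luminescence from an EWS-FLI1 target-promoter (NR0B1) reporter, set against a CMV-promoter reporter, two days after silencing single genes in TC32 Ewing sarcoma cells. Each siRNA was applied at 20 nM. A z-score of the log NR0B1-over-CMV signal, less the median of siRNAs with the same seed; more negative means a stronger specific loss of the NR0B1 reporter.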

The strongest results of the screen are mostly left out here. Sequences are the guide (antisense) strand, without overhang.

strand | target gene | seed-corrected z-score
AUAUAUCCAAUGGUUUUCC | AQP4 | 0.3063
UCUCUUUAUUGAGAUACGG | RNASEK | -1.483
UUACUGUAGUGUAUAAAAC | RCBTB2 | 1.374
UCAUUCACCAGGAAGGUCU | LRFN1 | -0.2137
AACCGUACAAACUUCUGUC | LGI3 | -0.1097
AGAGGAACAAUUCCGCACG | CYP2B6 | -0.3919
UGUCCAAAAAGCAUCAGGC | USP11 | -1.475
UUCUUAUAUCCUCAUGUCC | NTN4 | -0.5301
AUAAGGUAAAGAAGGAUGG | OR52B2 | 1.416
UUGGGUACCACAUCUCACC | ACRC | -0.5405
AUUGUGACAGACCAUUCCC | RPS28P7 | 1.221
UAUUCGAAUCCCAUCUGCC | ZZEF1 | -0.7909
AAAGUAUGAACACGAAUUC | SEC24A | -0.8169
UGGUAUAUCCUUUUGCUCG | CUL7 | -0.1077
UAUCCCAAAUCCGUUAUCU | ZNF592 | -0.5126
UAACUGGUGACAUUCGAAC | RTCA | -0.3034
GUUGGUUCAAGUUGUUUUG | ANKRD20A3 | -0.4863
AUCGAAGUAAAUGAUGCGC | CBLN4 | 0.2669
UGACUUUUCUCCAAUAUGG | ZNF720P1 | -1.037
UGAAAUAUCAAGUACAGAG | MS4A2 | 0.1862
UUGUUGAAAGUGUCGAUGG | KPTN | 2.796
UUUAAGUCAAUGACAGCAG | RBM12 | 0.5985
UAUGCAAAAAGACAAGCUG | LCE1B | 1.125
UUGGAAUCAGGCAUAAUGC | SPIN1 | 0.4291
UAUGAUACAAGUAAAAUAC | ERICH2 | -1.01
UACGCUUGCGCUUCUUACC | HIST1H2BF | -0.1314
UUUGUCUUCUCACUGUUGG | LRRC47 | -0.1276
UUUGGGAGAAGCUUUCAGG | RPL14P1 | -1.809
AAAAGCAUCUGAGAUGUUG | ASNA1 | -0.223
AACCGUGCAUUGUUCAUAU | SELO | -0.5244
UAUCGUAUUUGUUGGUACC | INPP5J | 0.4923
UCUCAUCCCACUUCACUCG | STARD5 | 0.4554
UACUCCAUGAAAUCAAUGU | GUCA1A | 0.8358
UUUGAGGAUAGGUUGAAAG | ZNF107 | 0.2373
UGAUAGACGGGUUCGGUGC | POU3F4 | -0.2599
UCUUUCGCAAUCAUCAUUC | NOL8 | 0.1182
AAAGUGAUCAGUGAGGUAU | LOC730202 | 0.7467
AAAGAGUAGACGGCUAUGG | BEST4 | 0.1034
UUUAGAAUCGUUCCAAUGC | CTPS2 | 0.04248
UUCUCGUGACGACUCUUCC | HULC | 0.1936
UACCCAUCUCGCUUUGUAA | FAM185BP | -0.0661
UCUCCGUUUAUGUAAUCUC | PARP11 | -0.2584
AAAGUGGUGAGAGGACUGA | OAS1 | -0.01552
UGUAAUUUAAGCUAACUGC | SERP1 | -0.2119
UGAAUAGCACUUAACAUAC | UCHL5 | 0.4475
UCAUUGUCGAUGAUCUCUC | CTNNBL1 | -0.2059
UUUGAAGCAAGCAGGAAUC | OR52A1 | 0.2397
AUUCAGCCAAUAAAAAUGC | EIF2S2P4 | 0.1425
UCAUCUGAGAUAUUUACUC | CHP1 | -0.4192
UGUGAAAGCAAGGUAAGCC | DNAJC22 | -1.256
AAACGUACUGCGCUGUUCC | PDPK1 | -0.9719
UGCGUUUCAGGAUCAUCUC | ARL4C | 0.5257
AUGGGAACAAUACUGAACG | CWF19L1 | -0.6341
UAUACAUUCAAUAACAGCU | IL25 | 0.6787
UCAUCUAACCGCAUGUAGC | FAM221A | 0.05708
UUCUCUUAAAUCAAAAUGU | LOC728178 | 0.311
UUCACAACCACCGACUUGG | P2RX3 | -1.412
UCUUAUAGAAAUCUCGUCC | DNAJB11 | 0.5252
UUGCGAAAUGGUAGGAUGG | LOC728095 | 1.721
UUUGACUCUACUCAGUUGC | UTP14A | 1.243
UGUCCAAUAAAGUUGAGCG | BEND2 | -0.3014
UGAUCUUAUGCUCAAAGCC | MAP3K10 | -1.23
UUUAUUGAAAUCAAACUGG | CENPB | 0.1319
UUUCUGGAGGGUACAUUUC | CCNB1 | 0.7912
UAGAAGUGAAUCUAGCUGC | KRT76 | 0.2621

Some entries from above, unchanged:

| strand | target gene | seed-corrected z-score |
|---|---|---|
| `AACCGUGCAUUGUUCAUAU` | SELO | -0.5244 |
| `UCUCCGUUUAUGUAAUCUC` | PARP11 | -0.2584 |
| `UAUCCCAAAUCCGUUAUCU` | ZNF592 | -0.5126 |
| `UCUCAUCCCACUUCACUCG` | STARD5 | 0.4554 |
| `AAAGUGAUCAGUGAGGUAU` | LOC730202 | 0.7467 |
| `UUCACAACCACCGACUUGG` | P2RX3 | -1.412 |
| `UCAUCUGAGAUAUUUACUC` | CHP1 | -0.4192 |
| `UUACUGUAGUGUAUAAAAC` | RCBTB2 | 1.374 |